Substitutions are numbered along the chain they refer to. Results are given in words; binding and its absence hold for the method and conditions named. Some entries that bind do so weakly or less than the wild type. Each block holds one binder with its values, some of them ahead of it.
Target: human PSMA (human) (UniProt Q04609)
Experiment: uTCE with CD3.23

Protein sequences, listed by entry. Tags and fused reporters are not part of them. Residues count along the entry.
UniProt Q04609, residues 44-750: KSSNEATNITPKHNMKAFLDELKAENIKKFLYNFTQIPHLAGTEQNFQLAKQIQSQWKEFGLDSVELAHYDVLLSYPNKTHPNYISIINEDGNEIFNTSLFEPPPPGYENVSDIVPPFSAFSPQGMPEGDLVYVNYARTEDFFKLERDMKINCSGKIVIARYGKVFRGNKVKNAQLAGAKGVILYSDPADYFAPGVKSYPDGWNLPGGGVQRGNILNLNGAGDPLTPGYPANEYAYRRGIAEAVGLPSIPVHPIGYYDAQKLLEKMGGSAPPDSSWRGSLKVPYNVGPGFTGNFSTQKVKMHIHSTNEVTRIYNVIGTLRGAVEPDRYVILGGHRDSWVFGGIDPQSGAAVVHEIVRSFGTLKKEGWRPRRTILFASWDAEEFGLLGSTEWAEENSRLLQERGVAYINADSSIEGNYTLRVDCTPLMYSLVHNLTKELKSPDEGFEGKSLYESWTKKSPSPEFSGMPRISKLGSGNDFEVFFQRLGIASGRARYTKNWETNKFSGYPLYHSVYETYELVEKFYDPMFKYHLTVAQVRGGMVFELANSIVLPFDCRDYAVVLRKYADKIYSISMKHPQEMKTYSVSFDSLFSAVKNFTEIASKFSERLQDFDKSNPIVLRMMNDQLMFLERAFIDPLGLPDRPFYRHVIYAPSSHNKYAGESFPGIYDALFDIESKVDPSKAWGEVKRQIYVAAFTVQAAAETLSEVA

binding: binds
B1: uTCE of AC2717 (PSMA.5, VHH3, with CD3.23) (bispecific antibody, V domains shown)
VHH: QVQLVESGGGVVQPGRSLRLSCAASGRTFGIYVMGWVRQAPGKEREFVAAISWSGSNRLVSDSVKGRFTISRDNSKNTLYLQMNSLRAEDTAVYYCAASNRLYGRTWYDFNESDYWGQGTQVTVSS
VL: ELVVTQEPSLTVSPGGTVTLTCRSSNGAVTSSNYANWVQQKPGQAPRGLIGGTNKRAPGTPARFSGSLLGGKAALTLSGVQPEDEAVYYCALWYPNLWVFGGGTKLTVL
VH: EVQLLESGGGIVQPGGSLKLSCAASGFTFNTYAMNWVRQAPGKGLEWVARIRSKYNNYATYYADSVKDRFTISRDDSKNTVYLQMNNLKTEDTAVYYCVRHENFGNSYVSWFAHWGQGTLVTVSS

binding: binds
B2: uTCE of AC2728 (PSMA.6, VHH14, with CD3.23) (bispecific antibody, V domains shown)
VH: B1 VHH with Q1E, Y95F, Q121T

— patent US20250188184A1
